Reference: PubChem BioAssay AID2685 (National Center for Advancing Translational Sciences (NCATS), 2010)
Some of the results follow. These are further read-outs of the screen, such as a control signal, another cell line or another target. No call is given for them. Most of these compounds were active or inconclusive in the main read-out, so they are no random draw. Words in brackets tell the shape of the fitted curve; partial curves, single points and poor fits give uncertain potencies.

Assay: qHTS Assay for Lipid Storage Modulators in Drosophila S3 Cells;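 for cell number change: cells counted by Cell Tracker Red CMTPX staining in the red channel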
Settings: BODIPY lipid droplet fluorescence, 18-24 h; for cell number change: measured here: cell count max response, cells fed with added oleic acid
In short: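 Laser-scanning cytometry quantifies lipid droplet accumulation (500–530 nm total intensity; droplet/cell object ratio) in oleic acid-fed (400 uM added) Drosophila S3 cells treated with a concentration series. 20 uM Triacsin C defined 100% inhibition.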

[1] = measured here: lipid fluorescence (Fed channel) AC50, cells fed with added oleic acid
[2] = measured here: cell number channel AC50, cells fed with added oleic acid

| Compound | AC50 [1] | cell number change [%] | AC50 [2] |
| --- | --- | --- | --- |
| O=c1ccnc(S/C=C/c2ccccc2)[nH]1 | 0.731 µM [falling, full curve] |  |  |
| Cc1nn(C)c(C)c1CS(=O)(=O)c1ccccc1 | 2.91 µM [rising, single point] | 4.87 | 0.0651 µM [rising, full curve, poor fit] |
| Cc1cc(NC(=O)c2ccccc2NS(=O)(=O)c2c(C)c(C)cc(C)c2C)no1 |  | -30.4 | 29.1 µM [falling, single point] |
| CC(OC(=O)c1cc2sccc2n1C)C(=O)NCCc1ccccc1 (stereo unspecified) | 0.164 µM [rising, full curve, poor fit] | -3.5 |  |
| COc1c(C(=O)NC(=S)Nc2nnn(C)n2)cc2ccccc2c1Br | 5.8 µM [falling, single point] | 51.9 | 1.46 µM [rising, partial curve] |
| O=C(Cc1ccccc1)NCc1ccc(-n2cccc2)cc1 |  | -9.54 |  |
| O=C(Nc1cccnc1Cl)c1ccc(=O)oc1 | 23.1 µM [falling, single point] | -24.4 |  |
| CCn1c(=O)c(CCC(=O)N2CCOCC2)c(C)c2c(C)nn(-c3ccccc3)c21 |  |  | 6.51 µM [falling, single point] |
| CSc1nc(C)c2c(n1)OC(CN1C(=O)c3ccccc3C1=O)C2 (stereo unspecified) |  | -39.4 | 8.2 µM [falling, partial curve] |
| COc1ccc(-c2cc(=O)oc3c(O)c(O)ccc23)cc1 | 3.66 µM [rising, full curve] | 60.4 | 6.51 µM [rising, partial curve] |
| CN(C)S(=O)(=O)c1cccc(C(=O)C2=C3SC=C(c4ccccc4)N3CC2)c1 | 9.2 µM [rising, partial curve, poor fit] | 8.51 |  |
| Cc1ccc(-c2cc(C)nc3ncnn23)cc1 | 20.6 µM [falling, partial curve, poor fit] | -18.9 |  |
| O=S(=O)(N/N=C\C=C\c1ccccc1)c1ccc(Cl)cc1 | 6.51 µM [falling, partial curve, poor fit] |  |  |
| C=C1C(=O)[C@@]23[C@H](O)C[C@@H]4C(C)(C)CC[C@H](O)[C@]4(C)[C@@H]2C[C@H](O)[C@@H]1[C@H]3O | 16.4 µM [falling, partial curve] | -31.5 | 18.4 µM [falling, partial curve, poor fit] |
| O=C(Nc1ccc(Cl)cc1)c1cccnc1N1CCCCC1 | 4.11 µM [rising, partial curve, poor fit] | 116 | 5.8 µM [rising, partial curve] |
| C=CCn1sc(N)c(C(=O)OCC)c1=S |  | 2.84 |  |
| COc1ccc2oc(=Nc3cccc(F)c3)c(C(N)=O)cc2c1 | 6.51 µM [rising, partial curve, poor fit] |  | 3.26 µM [rising, partial curve, poor fit] |
| Cc1nc2scc(C)n2c(=O)c1S(=O)(=O)Nc1ccc(F)cc1 | 0.082 µM [rising, full curve, poor fit] | -3.17 |  |
| O=c1oc(-c2ccccc2)cc(Cl)c1Cl | 4.61 µM [falling, partial curve, poor fit] | -20.6 |  |
| CCOC(=O)c1ccc(NC(=O)Cc2coc3cc4c(cc23)CCC4)cc1 | 2.06 µM [rising, partial curve] | -11.7 |  |

| Compound | AC50 [1] | cell number change [%] | AC50 [2] |
| --- | --- | --- | --- |
| O=c1[nH]nc(-c2ccc(NCCCO)c([N+](=O)[O-])c2)c2ccccc12 |  | -6.73 |  |
| COc1ccc(-n2c(N)c(C(=O)NCc3ccco3)sc2=S)cc1 |  | 16.3 |  |
| COc1cc(OC)c(NS(=O)(=O)c2c(C)[nH]c(=O)[nH]c2=O)cc1Cl |  | 30.3 | 29.1 µM [rising, partial curve, poor fit] |
| Cc1ccc(S(=O)(=O)N2CCc3ccccc3C2)cc1 | 29.1 µM [falling, single point] | -18.9 |  |
| COc1c(C)cc(Br)cc1C(=O)NC(=S)Nc1ccc(Cl)c(C(=O)O)c1 | 1.64 µM [falling, partial curve, poor fit] | -8.19 | 4.11 µM [falling, single point] |
| COC(=O)[C@@]12CCCN1[C@H](c1ccc(-c3cccc(Cl)c3)c(OC)c1)[C@H]1C(=O)N(C)C(=O)[C@H]12 | 0.58 µM [falling, single point] | -5.81 |  |
| O=C(N/N=C/c1cccc2ccccc12)c1ccc(CN2CCOCC2)cc1 |  | 36.9 |  |
| CC(C)NC(=O)NC(=O)CSc1ncccn1 |  | -38.5 | 4.11 µM [falling, full curve] |
| O=[N+]([O-])c1ccc(N/N=C/c2cccc(O)c2O)c(S(=O)(=O)N2CCOCC2)c1 |  | -5.73 |  |
| O=C1NCCN1Cc1ccccc1F | 1.46 µM [falling, partial curve] | 30.4 | 0.92 µM [falling, partial curve] |
| Cc1ccc(CN(C(=O)N2CCN(C)CC2)S(=O)(=O)c2ccc(C)cc2)cc1 |  |  | 0.13 µM [rising, full curve, poor fit] |
| O=[N+]([O-])c1ccc(N/N=C/c2cn(-c3ccccc3)nc2-c2ccccc2)cc1 |  | 16.1 |  |
| O=C(Sc1nnc(-c2ccccc2)o1)N1c2ccccc2Sc2ccccc21 | 13 µM [falling, partial curve] | -24.7 |  |
| Cn1c(=NC(=O)c2ccco2)sc2ccccc21 |  | -0.637 | 6.51 µM [falling, single point] |
| CC(NC(=O)COC(=O)C1=NN(c2ccccc2)C(=O)CC1)c1ccccc1 (stereo unspecified) |  | -23.2 | 0.731 µM [falling, full curve, poor fit] |
| OCCN1CCN(CC(O)COc2ccc(-c3ccccc3)cc2)CC1 (stereo unspecified) | 0.651 µM [falling, full curve, poor fit] | -36.4 | 29.1 µM [falling, single point] |
| COc1ccc(CN2C(=S)NC(C)(C)CC2(C)O)cc1 (stereo unspecified) | 0.461 µM [falling, full curve, poor fit] | -42 |  |
| Cn1c(CC(=O)Nc2ccccc2)nnc1SCC(=O)NC1=NCCS1 |  | 12.4 |  |
| O=S(=O)(c1ccccc1)c1ccc(N2CCCCCC2)cc1 |  | -10.9 |  |
| CCOC(=O)C1CCCN(C(=O)COc2ccccc2O)C1 (stereo unspecified) | 6.51 µM [rising, partial curve] | 32.4 | 9.2 µM [rising, partial curve] |

| Compound | AC50 [1] | cell number change [%] | AC50 [2] |
| --- | --- | --- | --- |
| CCc1ccc(N2C(=O)CN(Cc3ccc(OC)c(OC)c3)C2=S)cc1 | 1.46 µM [rising, full curve, poor fit] | 2.65 |  |
| CC(NC(=O)C(=O)N1CCCCC1)C(c1cccs1)N1CCN(c2ccc(F)cc2)CC1 (stereo unspecified) | 29.1 µM [rising, single point] | -2.59 | 4.61 µM [rising, single point] |
| CN(CCN1CCOCC1)Cc1nc(-c2ccccc2)no1 | 6.51 µM [falling, single point] | 1.09 |  |
| COc1ccc(NC(=O)/C=C/c2ccc(OC)c(OC)c2)cn1 | 0.0058 µM [falling, full curve, poor fit] | -20.6 |  |
| CCc1ccccc1NC(=O)COC(=O)c1c(C)nsc1NC | 9.2 µM [falling, partial curve, poor fit] | -31.9 | 6.51 µM [falling, partial curve, poor fit] |
| Cn1c(/C(C#N)=C(\O)CN2CCN(Cc3ccccc3)CC2)nc2ccccc21 | 29.1 µM [rising, single point] | 1.63 |  |
| S=C(Nc1cccc(Cl)c1)Nc1ccc2c(c1)OCCO2 | 6.51 µM [rising, single point] | -18.3 |  |
| Cc1ccc(N2CC(C(=O)OCc3ccc([N+](=O)[O-])cc3)CC2=O)cc1 (stereo unspecified) |  | -35.1 | 14.6 µM [falling, partial curve] |
| CC1CC(C)CN(C(=O)c2ccc3ccccc3c2)C1 (stereo unspecified) |  | 90.8 | 10.3 µM [rising, partial curve] |
| COc1ccc(C(=O)Nc2cc(C)cc(C)c2)cc1S(=O)(=O)N1CCOCC1 | 0.411 µM [falling, full curve] | -21 |  |
| CCOC(=O)c1cc2c(=O)n3ccccc3nc2n(Cc2ccco2)c1=NC(=O)c1ccc(OC)cc1 | 0.291 µM [rising, partial curve, poor fit] |  | 0.164 µM [rising, full curve, poor fit] |
| CC(C)(C)NC(=O)C(c1ccccc1F)N(Cc1ccco1)C(=O)c1csnn1 (stereo unspecified) | 0.58 µM [falling, full curve] | -20.5 |  |
| O=C(Nc1nnc(-c2ccc(Cl)cc2)o1)c1nc2ccccc2s1 |  | -27.1 |  |
| COC(=O)/C=c1\[nH]c2nnc(C)n2c1=O | 0.00517 µM [falling, full curve, poor fit] | -8.42 |  |
| Brc1ccccc1OCCN1CCOCC1 | 2.31 µM [rising, partial curve] | 8.73 |  |
| Cc1ccc(N(CC(=O)Nc2cc(Cl)ccc2Oc2ccccc2)S(C)(=O)=O)cc1C |  | 55 | 25.9 µM [rising, single point] |
| COC(=O)C1CCN(c2nc3ccccc3nc2C(C#N)C(=O)OCC(C)C)CC1 (stereo unspecified) | 29.1 µM [rising, single point] | -5.85 |  |
| O=C(CCSc1ccccc1)N1CCOCC1 | 23.1 µM [falling, partial curve] | -148 | 14.6 µM [falling, partial curve] |
| CCCCNC(=O)c1ccc2c(c1)ncn2C1CCCC1 |  | 102 | 20.6 µM [rising, partial curve] |

Taken from above, 3 compounds:

| Compound | AC50 [1] | cell number change [%] | AC50 [2] |
| --- | --- | --- | --- |
| COc1ccc(C(=O)Nc2cc(C)cc(C)c2)cc1S(=O)(=O)N1CCOCC1 | 0.411 µM [falling, full curve] | -21 |  |
| CCOC(=O)c1cc2c(=O)n3ccccc3nc2n(Cc2ccco2)c1=NC(=O)c1ccc(OC)cc1 | 0.291 µM [rising, partial curve, poor fit] |  | 0.164 µM [rising, full curve, poor fit] |
| CC(C)(C)NC(=O)C(c1ccccc1F)N(Cc1ccco1)C(=O)c1csnn1 (stereo unspecified) | 0.58 µM [falling, full curve] | -20.5 |  |
